Data taken from PMC2010749, “Cytotoxic and clastogenic effects of soluble and insoluble compounds containing hexavalent and trivalent chromium” (British Journal of Cancer, 1981).

System: BHK cells
Assay: Stability of Cr(III) accumulated in BHK cells
Type: cell-based, Syrian hamster
Conditions: washed; for Chromium level in growth medium / Chromium level in cells / Chromium level, total (growth medium + cells): 6 h in MEM; for Fraction of the Cr accumulated in the cells that remains firmly bound: 6 h treatment, re-incubated up to 48 h in normal growth medium

| Structure (SMILES) | Chromium level in growth medium (10 µg/ml, incubation 24 h) | Fraction of the Cr accumulated in the cells that remains firmly bound | Chromium level in cells (100 µg/ml, incubation 12 h) | Chromium level, total (growth medium + cells) (100 µg/ml, incubation 12 h) | Chromium level in growth medium (100 µg/ml, incubation 12 h in normal growth medium) | Chromium level in cells (100 µg/ml, incubation 24 h) | Chromium level in growth medium (100 µg/ml, incubation 24 h) | Chromium level, total (growth medium + cells) (100 µg/ml, incubation 24 h) | Chromium level in cells (100 µg/ml, incubation 36 h) | Chromium level in growth medium (100 µg/ml, incubation 36 h) | Chromium level, total (growth medium + cells) (100 µg/ml, incubation 36 h) | Chromium level in cells (100 µg/ml, incubation 48 h) | Chromium level, total (growth medium + cells) (100 µg/ml, incubation 48 h) |
| --- | --- | --- | --- | --- | --- | --- | --- | --- | --- | --- | --- | --- | --- |
| [Cl][Cr]([Cl])[Cl] [Chromium chloride] | 8-8 µg of Cr(III) per 10 pg of DNA | ~75% | – | – | – | – | – | – | – | – | – | – | – |
| [K+].[K+].[O]=[Cr](=[O])([O-])[O][Cr](=[O])(=[O])[O-] [Potassium dichromate] | – | about 50% | 1-4 µg of Cr(III) per 10 pg of DNA | 2-9 µg of Cr(III) per 10 pg of DNA | 1-5 µg of Cr(III) per 10 pg of DNA | 1-6 µg of Cr(III) per 10 pg of DNA | 1-7 µg of Cr(III) per 10 pg of DNA | 3-3 µg of Cr(III) per 10 pg of DNA | 1-6 µg of Cr(III) per 10 pg of DNA | 1-3 µg of Cr(III) per 10 pg of DNA | 2-9 µg of Cr(III) per 10 pg of DNA | 1-5 µg of Cr(III) per 10 pg of DNA | 3-5 µg of Cr(III) per 10 pg of DNA |
